The source gives many values for each of these; only a part stands here.
Key:
Format in all cases: cell-based
[1] = molecular target: T1, RNA polymerase II (Mus musculus) (UniProt P08775+Q8CFI7+P97760+A0A3Q4L2S8+Q80UW8+P61219+P62488+Q923G2+P60898+O08740+Q63871+P62876); assay: Inhibition of RNA polymerase II in mouse B16-F1 migrating cells assessed as fold change in Bad-RNA stability at 0.1 mM measured by ChIP-seq analysis relative to control cells
[2] = molecular target: T1, RNA polymerase II (Mus musculus); assay: Inhibition of RNA polymerase II in mouse B16-F1 migrating cells assessed as fold change in Slc2a5-RNA stability at 0.1 mM measured by ChIP-seq analysis relative to control cells
[3] = molecular target: T1, RNA polymerase II (Mus musculus); assay: Inhibition of RNA polymerase II in mouse B16-F1 migrating cells assessed as fold change in Rpl32-RNA stability at 0.1 mM measured by ChIP-seq analysis relative to control cells
[4] = molecular target: T1, RNA polymerase II (Mus musculus); assay: Inhibition of RNA polymerase II in mouse B16-F1 migrating cells assessed as fold change in Rpl37a-RNA stability at 0.1 mM measured by ChIP-seq analysis relative to control cells
[5] = molecular target: T1, RNA polymerase II (Mus musculus); assay: Inhibition of RNA polymerase II in mouse B16-F1 migrating cells assessed as fold change in Ephx1-RNA stability at 0.1 mM measured by ChIP-seq analysis relative to control cells
[6] = molecular target: T1, RNA polymerase II (Mus musculus); assay: Inhibition of RNA polymerase II in mouse B16-F1 migrating cells assessed as fold change in Retreg2-RNA stability at 0.1 mM measured by ChIP-seq analysis relative to control cells
[7] = molecular target: T1, RNA polymerase II (Mus musculus); assay: Inhibition of RNA polymerase II in mouse B16-F1 migrating cells assessed as fold change in Lypla2-RNA stability at 0.1 mM measured by ChIP-seq analysis relative to control cells
[8] = molecular target: T1, RNA polymerase II (Mus musculus); assay: Inhibition of RNA polymerase II in mouse B16-F1 migrating cells assessed as fold change in Mien1-RNA stability at 0.1 mM measured by ChIP-seq analysis relative to control cells
[9] = molecular target: T1, RNA polymerase II (Mus musculus); assay: Inhibition of RNA polymerase II in mouse B16-F1 migrating cells assessed as fold change in Brpf1-RNA stability at 0.1 mM measured by ChIP-seq analysis relative to control cells
[10] = molecular target: T1, RNA polymerase II (Mus musculus); assay: Inhibition of RNA polymerase II in mouse B16-F1 migrating cells assessed as fold change in Usp47-RNA stability at 0.1 mM measured by ChIP-seq analysis relative to control cells
[11] = molecular target: T1, RNA polymerase II (Mus musculus); assay: Inhibition of RNA polymerase II in mouse B16-F1 migrating cells assessed as fold change in Fnbp1l-RNA stability at 0.1 mM measured by ChIP-seq analysis relative to control cells
[12] = molecular target: T1, RNA polymerase II (Mus musculus); assay: Inhibition of RNA polymerase II in mouse B16-F1 migrating cells assessed as fold change in Scaper-RNA stability at 0.1 mM measured by ChIP-seq analysis relative to control cells
[13] = molecular target: T1, RNA polymerase II (Mus musculus); assay: Inhibition of RNA polymerase II in mouse B16-F1 migrating cells assessed as fold change in Rnmt-RNA stability at 0.1 mM measured by ChIP-seq analysis relative to control cells
[14] = molecular target: T1, RNA polymerase II (Mus musculus); assay: Inhibition of RNA polymerase II in mouse B16-F1 migrating cells assessed as fold change in Adam9-RNA stability at 0.1 mM measured by ChIP-seq analysis relative to control cells
[15] = molecular target: T1, RNA polymerase II (Mus musculus); assay: Inhibition of RNA polymerase II in mouse B16-F1 migrating cells assessed as fold change in Parpbp-RNA stability at 0.1 mM measured by ChIP-seq analysis relative to control cells
[16] = molecular target: T1, RNA polymerase II (Mus musculus); assay: Inhibition of RNA polymerase II in mouse B16-F1 migrating cells assessed as fold change in Fam208a-RNA stability at 0.1 mM measured by ChIP-seq analysis relative to control cells
[17] = molecular target: T1, RNA polymerase II (Mus musculus); assay: Inhibition of RNA polymerase II in mouse B16-F1 migrating cells assessed as fold change in Syde2-RNA stability at 0.1 mM measured by ChIP-seq analysis relative to control cells
[18] = molecular target: T1, RNA polymerase II (Mus musculus); assay: Inhibition of RNA polymerase II in mouse B16-F1 migrating cells assessed as fold change in Dkc1-RNA stability at 0.1 mM measured by ChIP-seq analysis relative to control cells
[19] = molecular target: T1, RNA polymerase II (Mus musculus); assay: Inhibition of RNA polymerase II in mouse B16-F1 migrating cells assessed as fold change in Nemf-RNA stability at 0.1 mM measured by ChIP-seq analysis relative to control cells
[20] = molecular target: T1, RNA polymerase II (Mus musculus); assay: Inhibition of RNA polymerase II in mouse B16-F1 migrating cells assessed as fold change in Rpe-RNA stability at 0.1 mM measured by ChIP-seq analysis relative to control cells
[21] = molecular target: T1, RNA polymerase II (Mus musculus); assay: Inhibition of RNA polymerase II in mouse B16-F1 migrating cells assessed as fold change in Cep83-RNA stability at 0.1 mM measured by ChIP-seq analysis relative to control cells
[22] = molecular target: Histone-lysine N-methyltransferase EZH2 (Mus musculus) (UniProt Q61188); assay: Inhibition of EZH2 in mouse B16-F1 migrating cells assessed as fold change in H3K27me3-dependent regulated Gm37352-mRNA expression at 3 uM measured by ChIP-seq analysis relative to control cells
[23] = molecular target: Histone-lysine N-methyltransferase EZH2 (Mus musculus) (UniProt Q61188); assay: Inhibition of EZH2 in mouse B16-F1 migrating cells assessed as fold change in H3K27me3-dependent regulated Osgin1-mRNA expression at 3 uM measured by ChIP-seq analysis relative to control cells
[24] = molecular target: Histone-lysine N-methyltransferase EZH2 (Mus musculus) (UniProt Q61188); assay: Inhibition of EZH2 in mouse B16-F1 migrating cells assessed as fold change in H3K27me3-dependent regulated Zyx-mRNA expression at 3 uM measured by ChIP-seq analysis relative to control cells
[25] = molecular target: Histone-lysine N-methyltransferase EZH2 (Mus musculus) (UniProt Q61188); assay: Inhibition of EZH2 in mouse B16-F1 migrating cells assessed as fold change in H3K27me3-independent regulated Pkp2-mRNA expression at 3 uM measured by ChIP-seq analysis relative to control cells
[26] = molecular target: Histone-lysine N-methyltransferase EZH2 (Mus musculus) (UniProt Q61188); assay: Inhibition of EZH2 in mouse B16-F1 migrating cells assessed as fold change in H3K27me3-independent regulated Ndrg2-mRNA expression at 3 uM measured by ChIP-seq analysis relative to control cells
[27] = molecular target: Histone-lysine N-methyltransferase EZH2 (Mus musculus) (UniProt Q61188); assay: Inhibition of EZH2 in mouse B16-F1 migrating cells assessed as fold change in H3K27me3-buffered regulated Erbb2-mRNA expression at 3 uM measured by ChIP-seq analysis relative to control cells
[28] = molecular target: Histone-lysine N-methyltransferase EZH2 (Mus musculus) (UniProt Q61188); assay: Inhibition of EZH2 in mouse B16-F1 migrating cells assessed as fold change in H3K27me3-buffered regulated Mbnl1-mRNA expression at 3 uM measured by ChIP-seq analysis relative to control cells
[29] = molecular target: Histone-lysine N-methyltransferase EZH2 (Mus musculus) (UniProt Q61188); assay: Inhibition of EZH2 in mouse B16-F1 migrating cells assessed as fold change in H3K27me3-buffered regulated Polq-mRNA expression at 3 uM measured by ChIP-seq analysis relative to control cells
[30] = molecular target: Histone-lysine N-methyltransferase EZH2 (Mus musculus) (UniProt Q61188); assay: Inhibition of EZH2 in mouse B16-F1 migrating cells assessed as fold change in H3K27me3-buffered regulated L3hypdh-mRNA expression at 3 uM measured by ChIP-seq analysis relative to control cells

Chains of the proteins cited; added tags and fusions are not shown.
UniProt Q61188, whole entry: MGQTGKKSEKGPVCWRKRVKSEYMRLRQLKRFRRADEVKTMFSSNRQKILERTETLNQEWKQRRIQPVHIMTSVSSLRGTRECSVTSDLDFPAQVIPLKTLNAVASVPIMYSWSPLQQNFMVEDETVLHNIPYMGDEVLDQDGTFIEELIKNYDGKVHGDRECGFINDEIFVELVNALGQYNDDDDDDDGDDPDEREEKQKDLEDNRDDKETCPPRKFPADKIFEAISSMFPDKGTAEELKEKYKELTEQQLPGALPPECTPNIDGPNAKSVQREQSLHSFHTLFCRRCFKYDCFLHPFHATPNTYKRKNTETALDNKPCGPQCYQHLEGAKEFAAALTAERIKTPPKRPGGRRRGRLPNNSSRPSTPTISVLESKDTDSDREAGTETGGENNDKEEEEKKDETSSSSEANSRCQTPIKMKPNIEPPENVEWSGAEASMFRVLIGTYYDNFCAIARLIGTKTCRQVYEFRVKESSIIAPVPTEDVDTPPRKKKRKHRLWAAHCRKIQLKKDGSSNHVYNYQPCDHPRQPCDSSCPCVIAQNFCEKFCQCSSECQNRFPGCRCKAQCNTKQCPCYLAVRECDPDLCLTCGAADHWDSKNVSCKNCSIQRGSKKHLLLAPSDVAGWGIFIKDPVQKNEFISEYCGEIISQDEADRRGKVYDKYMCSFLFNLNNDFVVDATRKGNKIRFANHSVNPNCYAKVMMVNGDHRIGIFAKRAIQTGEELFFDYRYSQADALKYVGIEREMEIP

Q: Which results are given for `OC[C@H]1O[C@@H](n2cnc3cc(Cl)c(Cl)cc32)[C@H](O)[C@@H]1O`?
A: log2FC [1]: 0.5; log2FC [2]: 0.48; log2FC [3]: 0.47; log2FC [4]: 0.46; log2FC [5]: 0.45; log2FC [6]: 0.42; log2FC [7]: 0.41; log2FC [8]: 0.4; log2FC [9]: -0.39; log2FC [10]: -0.4; log2FC [11]: -0.51; log2FC [12]: -0.53; log2FC [13]: -0.58; log2FC [14]: -0.62; log2FC [15]: -0.62; log2FC [16]: -0.64; log2FC [17]: -0.67; log2FC [18]: -0.71; log2FC [19]: -0.79; log2FC [20]: -0.96; log2FC [21]: -1.01

Q: What does the source list for `CCCc1cc(C)[nH]c(=O)c1CNC(=O)c1cc(-c2ccnc(N3CCN(C)CC3)c2)cc2c1cnn2C(C)C`?
A: log2FC [22]: 0.65; log2FC [23]: 0; log2FC [24]: 0.17; log2FC [25]: 0.67; log2FC [26]: 0.73; log2FC [27]: -0.39; log2FC [28]: -0.41; log2FC [29]: -0.41; log2FC [30]: -0.45
